{
  "source": "the supplement of paper PMC12669797",
  "note": "Only a part is listed here, and it is no random draw.",
  "data": [
    {"tested_on": "TOV-21G", "assay": "cell viability relative to DMSO control (MTS) (fraction of DMSO control); higher = more viable cells / less growth inhibition", "conditions": "10 µM; 48 h", "experimental": "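SCADS inhibitor kit III (367 inhibitors) screened at 10 µM final concentration on TOV-21G (HNF-1ß positive) and ES2 (HNF-1ß negative) ovarian clear cell carcinoma cells seeded at 5000 cells/well in 96-well plates. Cell viability was read by MTS assay 48 h after compound addition and expressed relative to DMSO control wells (N=3).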", "values": [
      {"smiles": "O=C1Nc2ccc(-c3cccnc3)cc2/C1=C/c1ccc[nH]1", "note": "[JAK3 Inhibitor VI]", "cell viability": 0.49}
    ]}
  ]
}
